Screen size: about 300,000 compounds; about 3,700 (1.2%) were called active. Inconclusive results, whose numbers are uncertain, are shown with a selection of clear calls. Calls come from the whole dose curve; tested in HEK293 cells. Potencies beside an inconclusive call are fits to weak or partial responses and may not hold up.
test: qHTS for Inhibitors of binding or entry into cells for Lassa Virus; settings: Lassa virus pseudotype entry inhibition, cell reporter; series mostly up to 37.9 µM; note: nearly all actives have a fitted effect of over 50% in size
Potency is the fitted concentration of half-maximal effect.

| SMILES | Potency |
| --- | --- |
| COc1ccc(N(Cc2cccs2)C(=O)c2ccco2)cc1 | inactive |
| N#C/C(=C\Nc1ccc(Cl)cn1)S(=O)(=O)c1ccccc1 | inconclusive: 5.62 µM [inhibitor, single point] |
| Cc1cc(C)cc(NC(=O)CCc2c(C)nc3nc(CNC(=O)c4cccc(F)c4)nn3c2C)c1 | inactive |
| Cc1csc(SCC(=O)Nc2cccc3nsnc23)n1 | inconclusive: 3.98 µM [activator, full curve] |
| COC(=O)c1[nH]c2cc(OC)ccc2c1NC(=O)CN1CCN(c2cccc(C)c2)C(C)C1 (configuration not stated) | inconclusive: 14.1 µM [inhibitor, partial curve, poor fit] |
| CC(C)CCNC(=O)NC(=O)CSc1nnc2ccccn12 | inconclusive: 18.3 µM [activator, partial curve, poor fit] |
| C/C(=N\NC(=O)CCCNc1ccccc1)c1ccncc1 | inconclusive: 7.94 µM [activator, partial curve] |
| CCc1cccc(C)c1NC(=O)c1ccc2c(c1)CCN2S(=O)(=O)c1ccc(Cl)cc1 | inactive |
| COc1ccccc1N1CCN(C(=O)COc2ccc(C)cc2Br)CC1 | inconclusive: 11.2 µM [inhibitor, single point] |
| CCS(=O)(=O)N1CCc2cc(C(=O)Nc3ccc(Br)cc3F)ccc21 | inconclusive: 20 µM [activator, single point] |
| Cc1ccc(S(=O)(=O)CC2CSc3nc4ccccc4n32)cc1 (configuration not stated) | inconclusive: 11.2 µM [inhibitor, partial curve, poor fit] |
| COC(=O)c1nn(-c2ccc(-c3ccccc3)cc2)cc1O | inconclusive: 35.5 µM [inhibitor, single point] |
| Cc1ccc(C(=O)N/C(=C/c2ccc(-c3cc(C(F)(F)F)ccc3Cl)o2)C(=O)NCc2cccnc2)cc1 | inconclusive: 17.8 µM [inhibitor, single point] |
| CC1CCCCN1Cc1c(O)ccc2c(=O)c(-c3nc4ccccc4s3)c(N)oc12 (configuration not stated) | inconclusive: 22.4 µM [inhibitor, single point] |
| COc1ccc(O)c(/C=N/N2CCCCC2)c1 | inactive |
| COC(=O)N/N=C\c1ccccc1OC/C=C/c1ccccc1 | inconclusive: 35.5 µM [inhibitor, single point] |
| c1ccc(Cn2nnnc2CN2CCN(c3ncccn3)CC2)cc1 | inconclusive: 35.5 µM [activator, single point] |
| CCCCC(CC)C(=O)Nc1ccccc1C#N (configuration not stated) | inconclusive: 14.6 µM [activator, partial curve, poor fit] |
| CC1CCCCN1S(=O)(=O)c1ccc(N(C(=O)c2cnccn2)C(C(=O)NC2CCCCC2)c2cccs2)cc1 (configuration not stated) | inconclusive: 6.31 µM [inhibitor, full curve, poor fit] |
| CC(CNC(=O)c1ccc2c(c1)nc1n2CCCCC1)c1ccccc1 (configuration not stated) | inconclusive: 17.8 µM [inhibitor, single point] |
| COc1ccc(C(=O)N2CCC(n3c(C)nc4cc(F)ccc43)CC2)cc1OC | inactive |
| Cc1cc(C(=O)CCC(=O)NCc2ccccc2F)c(C)s1 | inconclusive: 11.2 µM [activator, partial curve, poor fit] |
| O=C(NCc1ccc(Cl)cc1)c1ccc(CSc2nc3ccncc3[nH]2)cc1 | inconclusive: 20 µM [inhibitor, single point] |

Ordered by formula weight (smallest number first): part of the list above.

| SMILES | Potency |
| --- | --- |
| CC(C)CCNC(=O)NC(=O)CSc1nnc2ccccn12 | inconclusive: 18.3 µM [activator, partial curve, poor fit] |
| COC(=O)c1[nH]c2cc(OC)ccc2c1NC(=O)CN1CCN(c2cccc(C)c2)C(C)C1 (configuration not stated) | inconclusive: 14.1 µM [inhibitor, partial curve, poor fit] |
| CCc1cccc(C)c1NC(=O)c1ccc2c(c1)CCN2S(=O)(=O)c1ccc(Cl)cc1 | inactive |

Remaining list, next part

| SMILES | Potency |
| --- | --- |
| Cc1ccc(NC(=O)CN2CCC(NC(=O)Cc3ccccc3)CC2)c(C)c1 | inactive |
| COc1cc(/C=C/C(=O)CC(=O)/C=C/c2ccc(O)c(OC)c2)ccc1O | active: 18.4 µM |
| COc1ccc(-c2[nH]c(-c3ccc(O)cc3)nc2-c2ccccc2)cc1 | inconclusive: 15.8 µM [inhibitor, single point] |
| O=C(Nc1ccc2c(c1)OCCO2)c1cccc(S(=O)(=O)N2CCOCC2)c1 | inactive |
| CCOC(=O)c1cccc(NC(=O)C(C)n2nc(C)c3c(C)n(-c4ccccc4)nc3c2=O)c1 (configuration not stated) | inactive |
| Cc1ccc(NC(=O)c2cc(C(=O)c3cc(Cl)ccc3O)cn(-c3ccc(C)cc3)c2=O)cc1 | inconclusive: 35.5 µM [inhibitor, single point] |
| Cc1ccccc1C1=C/C(=C(\SS/C(C(=O)c2ccc(OCC(=O)O)c(Cl)c2Cl)=C2\C=C(c3ccccc3C)SS2)C(=O)c2ccc(OCC(=O)O)c(Cl)c2Cl)SS1 | inconclusive: 25.1 µM [inhibitor, single point] |
| Cc1cccc(N2CCN(S(=O)(=O)c3ccc(-c4cnc(C5CC5)o4)cc3)CC2)c1C | inconclusive: 10 µM [inhibitor, partial curve, poor fit] |
| CC(=O)c1ccc(NC(=O)C(C)Sc2nnc3ccccn23)cc1 (configuration not stated) | inactive |
| CCOC(=O)c1c(-c2cccc([N+](=O)[O-])c2)csc1NC(=O)C1CCCCC1 | inconclusive: 22.4 µM [inhibitor, single point] |
| Cc1ccc(/C=N/NC(=O)c2cc(-c3cccnc3)nc3ccccc23)cc1 | inconclusive: 2.24 µM [inhibitor, full curve, poor fit] |
| COc1cc(/C=C2\SC(N)=NC2=O)ccc1O | inactive |
| O=C(CSc1ncn[nH]1)Nc1ccccc1-c1ccccc1 | inconclusive: 0.164 µM [inhibitor, partial curve] |
| COc1ccc2c(c1)c1ncn(Cc3ccc(F)cc3)c(=O)c1n2C | inconclusive: 22.4 µM [inhibitor, partial curve, poor fit] |
| COc1ccccc1CNC(=O)CC(c1ccc(F)cc1)N1Cc2ccccc2C1=O (configuration not stated) | inactive |
| N#C/C(=C\C=C\c1ccccc1[N+](=O)[O-])C(=O)NCc1ccccc1 | active: 10 µM |
| CC(C)(c1cc(Cl)c(O)c(CN2CCOCC2)c1)c1cc(Cl)c(O)c(CN2CCOCC2)c1 | inconclusive: 14.1 µM [inhibitor, single point] |
| Brc1ccc2oc(-c3ccn[nH]3)cc2c1 | inconclusive: 6.31 µM [activator, single point] |
| CCOC(=O)c1cc2c(=O)n3ccccc3nc2n(Cc2ccco2)c1=NC(=O)c1ccccc1Br | inactive |
| CCn1c(-c2nonc2N)nc2cncc(C(=O)N3CCC(N)C3)c21 (configuration not stated) | inconclusive: 17.7 µM [inhibitor, partial curve, poor fit] |
| Cc1ccc(-n2c(C)cc(/C=N/NC(=O)CC3(C)OCCO3)c2C)cc1 | inactive |
| Cc1ccccc1NC(=O)c1cc(S(=O)(=O)c2ccccc2)ccc1Cl | inconclusive: 0.398 µM [inhibitor, partial curve, poor fit] |
| CCC1CCC/C1=N\NC(=O)CCC(=O)Nc1ccccc1Cl (configuration not stated) | inconclusive: 4.61 µM [inhibitor, single point] |

Another view of some results above:
CCS(=O)(=O)N1CCc2cc(C(=O)Nc3ccc(Br)cc3F)ccc21
  Potency: inconclusive: 20 µM [activator, single point]
COc1ccc(C(=O)N2CCC(n3c(C)nc4cc(F)ccc43)CC2)cc1OC
  Potency: inactive

(next part)

| SMILES | Potency |
| --- | --- |
| O=C(Nc1ccc2oc(-c3cccnc3)nc2c1)c1ccc([N+](=O)[O-])o1 | inconclusive: 5.01 µM [inhibitor, partial curve, poor fit] |
| CCOC(=O)c1ccc(N2CCOCC2)c(NS(=O)(=O)c2ccc(F)cc2)c1 | inconclusive: 1.26 µM [activator, single point] |
| COc1ccnc(N=CNOCc2ccc(Cl)cc2)c1C#N | inconclusive: 3.55 µM [inhibitor, partial curve, poor fit] |
| Cc1ccc(N2C(=O)Nc3cc(Cl)c(Cl)cc3N2O)cc1Cl | inactive |
| Cc1nn(C(C)(C)C)c(OC(=O)c2ccc3c(c2)OCO3)c1S(=O)(=O)c1ccccc1 | active: 8.91 µM |
| Cc1cccc(CS(=O)(=O)c2nnc([C@H](Cc3ccccc3)NC(=O)OC(C)(C)C)o2)c1 | inactive |
| O=c1cc(-c2ccccc2)[nH]c2cc(Cl)ccc12 | inconclusive: 0.184 µM [inhibitor, full curve, poor fit] |
| O=C(COc1ccccc1)Nc1nc2c(s1)CCCC2 | inconclusive: 22.4 µM [inhibitor, single point] |
| COCC(=O)N1CCCC(C(=O)c2ccc(-c3ccccc3)c(F)c2)C1 (configuration not stated) | inconclusive: 0.891 µM [inhibitor, single point] |
| O=C(CN1CCN(c2ccccc2O)CC1)Nc1ccc([N+](=O)[O-])cc1Br | inconclusive: 14.1 µM [inhibitor, single point] |
| CCC(=O)Nc1cccc(NC(=S)NC(=O)c2cc3ccccc3o2)c1 | inconclusive: 7.94 µM [inhibitor, partial curve] |
| CCOc1ccc(C2C(C(N)=O)=C(C)Nc3nc(SCc4ccccc4)nn32)cc1 (configuration not stated) | inconclusive: 7.94 µM [activator, partial curve, poor fit] |
| O=C(/C=C/c1ccc(F)cc1)Nc1nc2ccccc2[nH]1 | inconclusive: 0.517 µM [activator, full curve, poor fit] |
| Cc1ccc(S(=O)(=O)N2CCN(C(=O)c3cc4c(C)nn(-c5ccccc5)c4s3)CC2)cc1 | inactive |
| Cc1ccc(C)c(S(=O)(=O)N2CCCC2CNC(=O)C(=O)NCCc2ccccc2)c1 (configuration not stated) | inactive |
| COc1ccc(NC(=O)/C(C#N)=C\c2cc(OC)c(OCc3ccc(C(=O)O)cc3)cc2Br)cc1 | inactive |
| CCn1c(-c2cc(Br)cc(OC)c2O)nc2cc(S(=O)(=O)N(C)C)ccc21 | inactive |
| CCC(=O)c1ccc(OCc2ccc(C(=O)OC)cc2)cc1 | inconclusive: 14.1 µM [inhibitor, single point] |
| Cc1cccc(NC(=O)c2cc(NC(=O)C3CCCCC3C(=O)O)ccc2N2CCOCC2)c1 (configuration not stated) | inactive |
| O=C1CC(c2ccccc2)Cc2nc(N3CCc4ccccc4C3)ncc21 (configuration not stated) | active: 14.6 µM |
| Cc1c(Cl)ccc2c(C(O)CBr)cc(-c3ccccc3)nc12 (configuration not stated) | inconclusive: 25.1 µM [inhibitor, partial curve, poor fit] |
